Patent US10898576B2, “Glucocorticoid combined with polyethylene glycol-modified interleukin 2 for treating respiratory disease” (priority 2016, dated 2021)
At least one structure is not confirmed: it was looked up by name or label, or the drawing left a doubt.

Columns and labels:
Assay type in all cases: in vivo, BALB/c mice
[1] = tested on: Treg in bronchoalveolar lavage fluid; experiment: Flow cytometry of Treg in bronchoalveolar lavage fluid of OVA asthma mice after atomization in the lung; details: same dose of the drug alone as in the combination, atomization days 12-14
Procedure: (§1) Female BALB/c mice aged 6-8 weeks (purchased from SLAC Laboratory Animal Co., Ltd.) were used for modeling of asthma, which were sensitized by intraperitoneal injection with 100 μg of ovalbumin (OVA) (Sigma) and 2 mg of Al(OH)3 for injection (Sigma) on days 1 and 8, and challenged by daily nasal instillation with 20 μl of 2% OVA on days 9-14 (FIG. 1A).
(§2) The asthma mice model of Example 1 were subjected to drug intervention while challenge by nasal instillation on days 12-14. The specific administration method was that the mice were anesthetized with 7% chloral hydrate (Sangon Biotech (Shanghai) Co., Ltd.) and then administrated quantitatively through atomization in the lung using an atomization metered dosing device (MicroSprayer®—Model IA-1B), and the administration volume was fixed at 25 ul/mouse, and the administration dose was adjusted by the level of concentration. On the 15th day, relevant indicators were detected.
Collection of bronchoalveolar lavage fluid. The mice were sacrificed by cervical dislocation. […] The IFN-γ, IL-4, IL-10, and IL-13 in the supernatant were measured by using commercial ELISA kit (R&D Corp).
Flow cytometry. […] All results were analyzed by FlowJo software (Treestar).

[2] = tested on: asthma mice; experiment: Lung histopathology (H&E, PAS) of OVA asthma mice; details: same dose of the drug alone as in the combination, atomization days 12-14
Procedure: as §1, §2
(§3) Lung histopathology. The lungs of mice were fixed in 10% formalin, embedded in paraffin, sectioned, stained with H&E (Merck & Co, Inc) and PAS (Sigma), respectively, and examined under a 20-fold microscope.

[3] = tested on: asthma mice; experiment: Example 6: asthma mice challenged days 9-18, local atomization vs intraperitoneal Dex, lung function and pathology; details: 40 μg Dex per mouse
Procedure: as §3
Lung function measurement. After being anesthetized with 2% pentobarbital sodium, the mice were subjected to respiratory provocation test with methacholine (Sigma) at 3.125 mg/ml, 6.25 mg/ml, and 12.5 mg/ml prepared in PBS, respectively. The airway resistance curve was plotted and analyzed (FinePoint NAM). The assay was performed using the BUXCO Airway Resistance and Lung Compliance System (BUXCO Electronics).
Modeling of asthma model mice and administration. The same mice as in Example 1 were used for asthma modeling, which were sensitized by intraperitoneal injection with 100 μg of ovalbumin (OVA) (Sigma) and 2 mg of Al(OH)3 for injection (Sigma) on days 1 and 8, and challenged by daily nasal instillation with 20 μl of 2% OVA on days 9-18. According to the purpose of the experiment, 40 μg Dex was intraperitoneally injected on days 12-18, 14-18 and 16-18, or 25,000 IU IL-2(PEG)+5 μg Bud was administered by atomization on days 16-18, respectively.
Administration and histopathological analysis were performed in the same manner as in Example 2, and lung function test was performed in the same manner as in Example 3. […]

C[C@@H]1C[C@H]2[C@@H]3CCC4=CC(=O)C=C[C@]4(C)[C@@]3(F)[C@@H](O)C[C@]2(C)[C@@]1(O)C(=O)CO [Dex, dexamethasone]
Treg in bronchoalveolar lavage fluid, single drug alone [1]: could not be achieved | pathological manifestations of lung inflammation, single drug alone [2]: could not be achieved | airway resistance ([3]; continuous intraperitoneal injection for 3 days): did not alleviate the airway resistance | airway resistance ([3]; continuous intraperitoneal injection for 5 days): did not alleviate the airway resistance
